No constants are given. Whether binding was seen depends on the method and setting. In cells and extracts the contact can be indirect. These calls come from enrichment with a bait or labelling near it, and not all partners need be listed. For part of these data: A no says only that the protein was not detected with the bait. For part of these data: Sequences can lack the tags named with a protein.
T1: SFB-tagged NFATC1 (human) (UniProt O95644)
T1 sequence: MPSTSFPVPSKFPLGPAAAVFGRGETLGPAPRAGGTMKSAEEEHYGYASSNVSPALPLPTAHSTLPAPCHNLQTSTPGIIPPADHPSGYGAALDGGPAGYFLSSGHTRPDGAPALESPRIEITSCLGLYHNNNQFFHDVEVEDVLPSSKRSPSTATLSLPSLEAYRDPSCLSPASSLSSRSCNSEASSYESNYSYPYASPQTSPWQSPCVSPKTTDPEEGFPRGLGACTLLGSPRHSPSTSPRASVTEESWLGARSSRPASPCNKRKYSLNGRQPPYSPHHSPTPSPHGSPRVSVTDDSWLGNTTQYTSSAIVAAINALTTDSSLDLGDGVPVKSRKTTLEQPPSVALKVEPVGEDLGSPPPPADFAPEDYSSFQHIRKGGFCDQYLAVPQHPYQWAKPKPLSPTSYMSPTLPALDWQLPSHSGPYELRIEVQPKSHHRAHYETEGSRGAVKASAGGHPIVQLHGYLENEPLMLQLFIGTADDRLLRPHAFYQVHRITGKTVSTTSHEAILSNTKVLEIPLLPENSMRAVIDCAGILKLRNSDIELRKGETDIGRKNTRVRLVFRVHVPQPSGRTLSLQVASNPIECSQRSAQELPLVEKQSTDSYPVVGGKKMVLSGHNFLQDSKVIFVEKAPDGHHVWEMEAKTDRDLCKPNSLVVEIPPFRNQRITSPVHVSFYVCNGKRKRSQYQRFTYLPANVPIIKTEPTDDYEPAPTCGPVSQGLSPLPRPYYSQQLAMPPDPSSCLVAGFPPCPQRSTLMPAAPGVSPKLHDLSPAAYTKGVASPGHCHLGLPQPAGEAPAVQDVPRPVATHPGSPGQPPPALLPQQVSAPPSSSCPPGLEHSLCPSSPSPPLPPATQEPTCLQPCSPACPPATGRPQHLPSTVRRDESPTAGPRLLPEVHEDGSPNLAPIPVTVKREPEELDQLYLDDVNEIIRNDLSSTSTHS

By UniProt entry, the sequences of proteins in these tests, tags left out.
UniProt P05412: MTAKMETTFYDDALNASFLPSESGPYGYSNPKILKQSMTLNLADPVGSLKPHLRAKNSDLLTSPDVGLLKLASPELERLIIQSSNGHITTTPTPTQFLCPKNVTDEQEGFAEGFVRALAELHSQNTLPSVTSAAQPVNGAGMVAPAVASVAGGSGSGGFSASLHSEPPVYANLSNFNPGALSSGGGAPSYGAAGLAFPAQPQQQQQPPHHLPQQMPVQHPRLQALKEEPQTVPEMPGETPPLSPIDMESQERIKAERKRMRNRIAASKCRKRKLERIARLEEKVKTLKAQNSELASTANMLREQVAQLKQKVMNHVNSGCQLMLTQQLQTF
UniProt P61244: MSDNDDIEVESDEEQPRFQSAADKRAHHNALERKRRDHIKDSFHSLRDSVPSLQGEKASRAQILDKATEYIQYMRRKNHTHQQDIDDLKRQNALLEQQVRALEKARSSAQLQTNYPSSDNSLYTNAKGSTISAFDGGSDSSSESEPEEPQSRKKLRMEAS


Tests used:
[1] = target: JUN (endogenous) (human (endogenous in HEK293T)) (UniProt P05412); assay: affinity purification with mass spectrometry; AP/MS with antibodies against endogenous JUN; soluble fraction
[2] = target: JUN (endogenous) (human (endogenous in HEK293T)) (UniProt P05412); assay: affinity purification with mass spectrometry; AP/MS with antibodies against endogenous JUN; chromatin fraction
[3] = target: T1, SFB-tagged NFATC1 (human); assay: affinity purification with mass spectrometry; TAP (streptavidin beads, biotin elution, S-protein beads; NETN buffer) of C-terminally SFB-tagged bait from HEK293T; soluble fraction (supernatant of the NETN lysate); forward and reciprocal purifications
[4] = target: T1, SFB-tagged NFATC1 (human); assay: affinity purification with mass spectrometry; TAP (streptavidin beads, biotin elution, S-protein beads; NETN buffer) of C-terminally SFB-tagged bait from HEK293T; chromatin fraction (pellet after NETN lysis, digested with TurboNuclease); forward and reciprocal purifications; some baits also after drug treatment
SFB-tagged MAX (human) = SFB-tagged MAX (human) (UniProt P61244); assay: affinity purification with mass spectrometry; same TAP/MS of SFB-tagged bait from HEK293T; the fraction in which the hit was found is not given

| Binder | binding [1] | binding [2] | binding [3] | binding [4] | binding (SFB-tagged MAX (human)) |
| --- | --- | --- | --- | --- | --- |
| ATF3 (endogenous) (protein, UniProt P18847 1-181) MMLQHPGQVSASEVSASAIVPCLSPPGSLVFEDFANLTPFVKEELRFAIQNKHLCHRMSSALESVTVSDRPLGVSITKAEVAPEEDERKKRRRERNKIAAAKCRNKKKEKTECLQKESEKLESVNAELKAQIEELKNEKQHLIYMLNLHRPTCIVRAQNGRTPEDERNLFIQQIKEGTLQS | binds | binds | no binding (only in the soluble fraction) | binds |  |
| SAP130 (endogenous) (protein, UniProt Q9H0E3 1-1048) MGPPRHPQAGEIEAGGAGGGRRLQVEMSSQQFPRLGAPSTGLSQAPSQIANSGSAGLINPAATVNDESGRDSEVSAREHMSSSSSLQSREEKQEPVVVRPYPQVQMLSTHHAVASATPVAVTAPPAHLTPAVPLSFSEGLMKPPPKPTMPSRPIAPAPPSTLSLPPKVPGQVTVTMESSIPQASAIPVATISGQQGHPSNLHHIMTTNVQMSIIRSNAPGPPLHIGASHLPRGAAAAAVMSSSKVTTVLRPTSQLPNAATAQPAVQHIIHQPIQSRPPVTTSNAIPPAVVATVSATRAQSPVITTTAAHATDSALSRPTLSIQHPPSAAISIQRPAQSRDVTTRITLPSHPALGTPKQQLHTMAQKTIFSTGTPVAAATVAPILATNTIPSATTAGSVSHTQAPTSTIVTMTVPSHSSHATAVTTSNIPVAKVVPQQITHTSPRIQPDYPAERSSLIPISGHRASPNPVAMETRSDNRPSVPVQFQYFLPTYPPSAYPLAAHTYTPITSSVSTIRQYPVSAQAPNSAITAQTGVGVASTVHLNPMQLMTVDASHARHIQGIQPAPISTQGIQPAPIGTPGIQPAPLGTQGIHSATPINTQGLQPAPMGTQQPQPEGKTSAVVLADGATIVANPISNPFSAAPAATTVVQTHSQSASTNAPAQGSSPRPSILRKKPATDGAKPKSEIHVSMATPVTVSMETVSNQNNDQPTIAVPPTAQQPPPTIPTMIAAASPPSQPAVALSTIPGAVPITPPITTIAAAPPPSVTVGGSLSSVLGPPVPEIKVKEEVEPMDIMRPVSAVPPLATNTVSPSLALLANNLSMPTSDLPPGASPRKKPRKQQHVISTEEGDMMETNSTDDEKSTAKSLLVKAEKRKSPPKEYIDEEGVRYVPVRPRPPITLLRHYRNPWKAAYHHFQRYSDVRVKEEKKAMLQEIANQKGVSCRAQGWKVHLCAAQLLQLTNLEHDVYERLTNLQEGIIPKKKAATDDDLHRINELIQGNMQRCKLVMDQISEARDSMLKVLDHKDRVLKLLNKNGTVKKVSKLKRKEKV |  |  |  |  | binds |
| ARID4B (endogenous) (protein, UniProt Q4LE39 1-1312) MKALDEPPYLTVGTDVSAKYRGAFCEAKIKTAKRLVKVKVTFRHDSSTVEVQDDHIKGPLKVGAIVEVKNLDGAYQEAVINKLTDASWYTVVFDDGDEKTLRRSSLCLKGERHFAESETLDQLPLTNPEHFGTPVIGKKTNRGRRSNHIPEEESSSSSSDEDEDDRKQIDELLGKVVCVDYISLDKKKALWFPALVVCPDCSDEIAVKKDNILVRSFKDGKFTSVPRKDVHEITSDTAPKPDAVLKQAFEQALEFHKSRTIPANWKTELKEDSSSSEAEEEEEEEDDEKEKEDNSSEEEEEIEPFPEERENFLQQLYKFMEDRGTPINKRPVLGYRNLNLFKLFRLVHKLGGFDNIESGAVWKQVYQDLGIPVLNSAAGYNVKCAYKKYLYGFEEYCRSANIEFQMALPEKVVNKQCKECENVKEIKVKEENETEIKEIKMEEERNIIPREEKPIEDEIERKENIKPSLGSKKNLLESIPTHSDQEKEVNIKKPEDNENLDDKDDDTTRVDESLNIKVEAEEEKAKSGDETNKEEDEDDEEAEEEEEEEEEEEDEDDDDNNEEEEFECYPPGMKVQVRYGRGKNQKMYEASIKDSDVEGGEVLYLVHYCGWNVRYDEWIKADKIVRPADKNVPKIKHRKKIKNKLDKEKDKDEKYSPKNCKLRRLSKPPFQTNPSPEMVSKLDLTDAKNSDTAHIKSIEITSILNGLQASESSAEDSEQEDERGAQDMDNNGKEESKIDHLTNNRNDLISKEEQNSSSLLEENKVHADLVISKPVSKSPERLRKDIEVLSEDTDYEEDEVTKKRKDVKKDTTDKSSKPQIKRGKRRYCNTEECLKTGSPGKKEEKAKNKESLCMENSSNSSSDEDEEETKAKMTPTKKYNGLEEKRKSLRTTGFYSGFSEVAEKRIKLLNNSDERLQNSRAKDRKDVWSSIQGQWPKKTLKELFSDSDTEAAASPPHPAPEEGVAEESLQTVAEEESCSPSVELEKPPPVNVDSKPIEEKTVEVNDRKAEFPSSGSNSVLNTPPTTPESPSSVTVTEGSRQQSSVTVSEPLAPNQEEVRSIKSETDSTIEVDSVAGELQDLQSEGNSSPAGFDASVSSSSSNQPEPEHPEKACTGQKRVKDAQGGGSSSKKQKRSHKATVVNNKKKGKGTNSSDSEELSAGESITKSQPVKSVSTGMKSHSTKSPARTQSPGKCGKNGDKDPDLKEPSNRLPKVYKWSFQMSDLENMTSAERITILQEKLQEIRKHYLSLKSEVASIDRRRKRLKKKERESAATSSSSSSPSSSSITAAVMLTLAEPSMSSASQNGMSVECR |  |  |  |  | binds |
| ATF2 (endogenous) (protein, UniProt P15336 1-505) MKFKLHVNSARQYKDLWNMSDDKPFLCTAPGCGQRFTNEDHLAVHKHKHEMTLKFGPARNDSVIVADQTPTPTRFLKNCEEVGLFNELASPFENEFKKASEDDIKKMPLDLSPLATPIIRSKIEEPSVVETTHQDSPLPHPESTTSDEKEVPLAQTAQPTSAIVRPASLQVPNVLLTSSDSSVIIQQAVPSPTSSTVITQAPSSNRPIVPVPGPFPLLLHLPNGQTMPVAIPASITSSNVHVPAAVPLVRPVTMVPSVPGIPGPSSPQPVQSEAKMRLKAALTQQHPPVTNGDTVKGHGSGLVRTQSEESRPQSLQQPATSTTETPASPAHTTPQTQSTSGRRRRAANEDPDEKRRKFLERNRAAASRCRQKRKVWVQSLEKKAEDLSSLNGQLQSEVTLLRNEVAQLKQLLLAHKDCPVTAMQKKSGYHTADKDDSSEDISVPSSPHTEAIQHSSVSTSNGVSSTSKAEAVATSVLTQMADQSTEPALSQIVMAPSSQSQPSGS |  |  | no binding (only in the soluble fraction) | binds |  |
| ATF7 (endogenous) (protein, UniProt P17544 1-483) MGDDRPFVCNAPGCGQRFTNEDHLAVHKHKHEMTLKFGPARTDSVIIADQTPTPTRFLKNCEEVGLFNELASSFEHEFKKAADEDEKKAAAGPLDMSLPSTPDIKIKEEEPVEVDSSPPDSPASSPCSPPLKEKEVTPKPVLISTPTPTIVRPGSLPLHLGYDPLHPTLPSPTSVITQAPPSNRQMGSPTGSLPLVMHLANGQTMPVLPGPPVQMPSVISLARPVSMVPNIPGIPGPPVNSSGSISPSGHPIPSEAKMRLKATLTHQVSSINGGCGMVVGTASTMVTARPEQSQILIQHPDAPSPAQPQVSPAQPTPSTGGRRRRTVDEDPDERRQRFLERNRAAASRCRQKRKLWVSSLEKKAEELTSQNIQLSNEVTLLRNEVAQLKQLLLAHKDCPVTALQKKTQGYLESPKESSEPTGSPAPVIQHSSATAPSNGLSVRSAAEAVATSVLTQMASQRTELSMPIQSHVIMTPQSQSAGR | binds | binds | no binding (only in the soluble fraction) | binds |  |
